From the supplement of paper PMC10849652
Some of the results follow.

Amino acid sequences for entries named in this document (tags omitted). A change or cut given only in a name is not applied to a line headed by its entry.
UniProt Q6P6C2: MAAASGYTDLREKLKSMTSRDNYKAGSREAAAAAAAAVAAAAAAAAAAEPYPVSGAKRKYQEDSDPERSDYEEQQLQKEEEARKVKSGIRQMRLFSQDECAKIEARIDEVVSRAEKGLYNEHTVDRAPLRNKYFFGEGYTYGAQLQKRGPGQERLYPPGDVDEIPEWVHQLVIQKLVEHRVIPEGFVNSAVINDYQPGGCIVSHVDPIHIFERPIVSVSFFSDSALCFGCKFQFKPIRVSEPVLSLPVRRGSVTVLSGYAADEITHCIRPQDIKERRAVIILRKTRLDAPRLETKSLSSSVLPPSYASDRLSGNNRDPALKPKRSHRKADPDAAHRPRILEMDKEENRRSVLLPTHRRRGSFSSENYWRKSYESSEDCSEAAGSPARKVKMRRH
UniProt Q02252: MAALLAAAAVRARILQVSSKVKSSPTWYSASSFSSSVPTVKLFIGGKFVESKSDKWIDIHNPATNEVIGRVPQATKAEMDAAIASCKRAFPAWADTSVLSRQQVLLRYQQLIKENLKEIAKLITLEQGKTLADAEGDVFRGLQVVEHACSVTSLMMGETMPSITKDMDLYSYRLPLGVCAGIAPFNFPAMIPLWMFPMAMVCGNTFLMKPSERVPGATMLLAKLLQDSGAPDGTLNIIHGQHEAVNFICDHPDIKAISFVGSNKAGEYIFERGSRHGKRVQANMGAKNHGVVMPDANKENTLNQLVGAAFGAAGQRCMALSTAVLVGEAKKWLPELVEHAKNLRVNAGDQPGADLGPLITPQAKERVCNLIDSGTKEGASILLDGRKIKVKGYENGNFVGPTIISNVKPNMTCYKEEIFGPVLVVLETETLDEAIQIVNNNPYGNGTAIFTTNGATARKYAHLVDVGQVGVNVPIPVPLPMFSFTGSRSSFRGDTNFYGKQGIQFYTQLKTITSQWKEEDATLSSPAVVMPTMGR
UniProt P49189: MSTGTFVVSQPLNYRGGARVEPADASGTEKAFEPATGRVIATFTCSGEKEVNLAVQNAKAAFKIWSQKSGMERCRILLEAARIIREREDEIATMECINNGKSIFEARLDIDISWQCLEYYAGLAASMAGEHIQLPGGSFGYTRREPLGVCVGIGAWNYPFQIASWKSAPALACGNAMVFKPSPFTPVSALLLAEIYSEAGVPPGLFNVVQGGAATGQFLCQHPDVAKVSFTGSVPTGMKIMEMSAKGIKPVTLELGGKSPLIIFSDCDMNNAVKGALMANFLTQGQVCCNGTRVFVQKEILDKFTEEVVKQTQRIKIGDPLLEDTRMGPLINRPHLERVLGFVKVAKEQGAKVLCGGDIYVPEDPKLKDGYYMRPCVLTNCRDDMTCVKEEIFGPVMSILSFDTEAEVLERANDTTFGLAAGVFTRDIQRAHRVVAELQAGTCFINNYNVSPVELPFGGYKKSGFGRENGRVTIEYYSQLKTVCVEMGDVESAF
UniProt P55196: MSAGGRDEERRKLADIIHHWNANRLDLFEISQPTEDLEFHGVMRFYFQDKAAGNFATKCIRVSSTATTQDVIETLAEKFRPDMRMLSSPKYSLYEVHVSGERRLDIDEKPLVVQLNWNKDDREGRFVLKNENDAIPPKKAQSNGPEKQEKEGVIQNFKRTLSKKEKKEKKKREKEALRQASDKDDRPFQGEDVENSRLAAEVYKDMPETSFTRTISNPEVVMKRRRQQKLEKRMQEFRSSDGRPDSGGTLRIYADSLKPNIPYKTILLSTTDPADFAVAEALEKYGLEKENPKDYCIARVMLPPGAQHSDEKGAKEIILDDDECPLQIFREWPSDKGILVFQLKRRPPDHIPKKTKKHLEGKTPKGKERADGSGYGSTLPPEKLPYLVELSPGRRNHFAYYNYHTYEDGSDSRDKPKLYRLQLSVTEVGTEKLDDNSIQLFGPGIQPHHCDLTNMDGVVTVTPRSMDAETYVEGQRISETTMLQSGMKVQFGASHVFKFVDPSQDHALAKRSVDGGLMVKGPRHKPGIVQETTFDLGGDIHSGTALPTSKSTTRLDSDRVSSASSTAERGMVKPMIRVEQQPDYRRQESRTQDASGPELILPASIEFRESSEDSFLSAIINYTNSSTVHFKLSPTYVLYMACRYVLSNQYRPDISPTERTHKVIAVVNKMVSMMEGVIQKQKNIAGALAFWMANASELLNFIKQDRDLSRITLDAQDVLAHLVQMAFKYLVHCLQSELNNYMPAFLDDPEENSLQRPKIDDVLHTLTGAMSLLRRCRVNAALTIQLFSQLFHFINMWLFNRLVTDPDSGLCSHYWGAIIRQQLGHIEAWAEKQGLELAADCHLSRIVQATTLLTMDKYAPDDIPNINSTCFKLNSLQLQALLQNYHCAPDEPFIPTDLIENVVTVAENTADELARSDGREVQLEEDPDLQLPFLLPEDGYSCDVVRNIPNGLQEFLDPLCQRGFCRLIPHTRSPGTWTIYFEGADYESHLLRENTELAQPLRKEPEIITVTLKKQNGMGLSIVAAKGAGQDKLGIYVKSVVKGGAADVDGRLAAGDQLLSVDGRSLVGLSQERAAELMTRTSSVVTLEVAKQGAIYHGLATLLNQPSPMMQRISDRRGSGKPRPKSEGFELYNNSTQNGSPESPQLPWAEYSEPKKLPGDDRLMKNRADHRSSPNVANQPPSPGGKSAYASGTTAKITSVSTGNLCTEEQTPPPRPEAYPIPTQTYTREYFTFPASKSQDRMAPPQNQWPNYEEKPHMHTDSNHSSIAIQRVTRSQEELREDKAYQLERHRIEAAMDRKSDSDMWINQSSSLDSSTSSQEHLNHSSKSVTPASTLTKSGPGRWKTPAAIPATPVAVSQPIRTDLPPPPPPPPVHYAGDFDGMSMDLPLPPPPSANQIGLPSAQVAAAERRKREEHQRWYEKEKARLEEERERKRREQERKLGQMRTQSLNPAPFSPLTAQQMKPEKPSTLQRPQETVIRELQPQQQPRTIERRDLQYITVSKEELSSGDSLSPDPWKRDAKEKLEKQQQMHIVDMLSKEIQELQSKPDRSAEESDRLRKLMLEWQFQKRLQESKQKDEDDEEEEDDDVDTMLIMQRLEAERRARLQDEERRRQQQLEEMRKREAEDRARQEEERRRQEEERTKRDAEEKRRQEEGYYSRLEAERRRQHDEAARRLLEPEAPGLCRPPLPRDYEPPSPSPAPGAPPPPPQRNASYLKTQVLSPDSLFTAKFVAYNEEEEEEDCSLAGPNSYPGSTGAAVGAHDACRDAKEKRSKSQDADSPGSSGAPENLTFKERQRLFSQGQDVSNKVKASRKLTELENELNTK
UniProt P11766: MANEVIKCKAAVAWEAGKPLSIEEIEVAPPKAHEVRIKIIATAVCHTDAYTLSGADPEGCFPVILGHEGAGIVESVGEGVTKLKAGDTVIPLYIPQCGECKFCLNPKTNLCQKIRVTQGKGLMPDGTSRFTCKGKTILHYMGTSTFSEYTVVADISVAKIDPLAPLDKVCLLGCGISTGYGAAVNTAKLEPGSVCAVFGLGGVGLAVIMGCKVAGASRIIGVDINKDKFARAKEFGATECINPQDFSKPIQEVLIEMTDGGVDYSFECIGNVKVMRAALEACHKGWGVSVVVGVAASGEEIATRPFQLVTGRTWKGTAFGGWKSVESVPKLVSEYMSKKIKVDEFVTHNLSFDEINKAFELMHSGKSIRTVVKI
UniProt P00568: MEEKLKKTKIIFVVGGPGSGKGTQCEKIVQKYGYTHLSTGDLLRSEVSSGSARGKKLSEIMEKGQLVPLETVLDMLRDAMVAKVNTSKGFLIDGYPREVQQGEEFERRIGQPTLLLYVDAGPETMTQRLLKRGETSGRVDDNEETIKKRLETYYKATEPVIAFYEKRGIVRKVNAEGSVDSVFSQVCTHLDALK
UniProt Q86V24: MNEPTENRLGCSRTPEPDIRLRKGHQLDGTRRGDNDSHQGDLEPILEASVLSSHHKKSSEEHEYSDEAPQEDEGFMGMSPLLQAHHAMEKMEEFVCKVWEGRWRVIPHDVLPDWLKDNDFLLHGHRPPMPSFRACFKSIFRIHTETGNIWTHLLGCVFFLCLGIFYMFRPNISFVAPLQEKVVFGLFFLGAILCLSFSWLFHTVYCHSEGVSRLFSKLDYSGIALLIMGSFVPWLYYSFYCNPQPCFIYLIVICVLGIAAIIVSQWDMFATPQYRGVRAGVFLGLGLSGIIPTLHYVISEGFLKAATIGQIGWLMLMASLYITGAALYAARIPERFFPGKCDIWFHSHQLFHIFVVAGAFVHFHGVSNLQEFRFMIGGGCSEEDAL
UniProt P35611: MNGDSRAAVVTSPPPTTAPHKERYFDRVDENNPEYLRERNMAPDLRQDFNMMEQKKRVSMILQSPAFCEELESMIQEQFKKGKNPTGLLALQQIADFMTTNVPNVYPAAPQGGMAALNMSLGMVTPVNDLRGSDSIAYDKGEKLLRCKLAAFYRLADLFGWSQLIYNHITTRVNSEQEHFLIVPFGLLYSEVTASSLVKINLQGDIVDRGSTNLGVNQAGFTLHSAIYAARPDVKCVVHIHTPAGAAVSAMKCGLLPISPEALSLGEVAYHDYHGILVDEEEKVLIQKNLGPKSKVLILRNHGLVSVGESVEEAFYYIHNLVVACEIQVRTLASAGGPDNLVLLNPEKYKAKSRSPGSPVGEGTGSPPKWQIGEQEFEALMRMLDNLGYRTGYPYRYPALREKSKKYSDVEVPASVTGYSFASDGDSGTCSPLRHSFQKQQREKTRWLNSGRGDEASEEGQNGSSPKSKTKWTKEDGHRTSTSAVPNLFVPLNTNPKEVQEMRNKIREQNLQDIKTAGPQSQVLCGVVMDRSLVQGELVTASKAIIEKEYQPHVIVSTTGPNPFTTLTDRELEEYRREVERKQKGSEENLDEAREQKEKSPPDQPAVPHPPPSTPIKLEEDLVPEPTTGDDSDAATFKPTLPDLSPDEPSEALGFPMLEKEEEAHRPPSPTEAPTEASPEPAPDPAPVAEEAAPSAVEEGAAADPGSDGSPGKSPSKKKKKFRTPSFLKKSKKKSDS
UniProt Q9NP73: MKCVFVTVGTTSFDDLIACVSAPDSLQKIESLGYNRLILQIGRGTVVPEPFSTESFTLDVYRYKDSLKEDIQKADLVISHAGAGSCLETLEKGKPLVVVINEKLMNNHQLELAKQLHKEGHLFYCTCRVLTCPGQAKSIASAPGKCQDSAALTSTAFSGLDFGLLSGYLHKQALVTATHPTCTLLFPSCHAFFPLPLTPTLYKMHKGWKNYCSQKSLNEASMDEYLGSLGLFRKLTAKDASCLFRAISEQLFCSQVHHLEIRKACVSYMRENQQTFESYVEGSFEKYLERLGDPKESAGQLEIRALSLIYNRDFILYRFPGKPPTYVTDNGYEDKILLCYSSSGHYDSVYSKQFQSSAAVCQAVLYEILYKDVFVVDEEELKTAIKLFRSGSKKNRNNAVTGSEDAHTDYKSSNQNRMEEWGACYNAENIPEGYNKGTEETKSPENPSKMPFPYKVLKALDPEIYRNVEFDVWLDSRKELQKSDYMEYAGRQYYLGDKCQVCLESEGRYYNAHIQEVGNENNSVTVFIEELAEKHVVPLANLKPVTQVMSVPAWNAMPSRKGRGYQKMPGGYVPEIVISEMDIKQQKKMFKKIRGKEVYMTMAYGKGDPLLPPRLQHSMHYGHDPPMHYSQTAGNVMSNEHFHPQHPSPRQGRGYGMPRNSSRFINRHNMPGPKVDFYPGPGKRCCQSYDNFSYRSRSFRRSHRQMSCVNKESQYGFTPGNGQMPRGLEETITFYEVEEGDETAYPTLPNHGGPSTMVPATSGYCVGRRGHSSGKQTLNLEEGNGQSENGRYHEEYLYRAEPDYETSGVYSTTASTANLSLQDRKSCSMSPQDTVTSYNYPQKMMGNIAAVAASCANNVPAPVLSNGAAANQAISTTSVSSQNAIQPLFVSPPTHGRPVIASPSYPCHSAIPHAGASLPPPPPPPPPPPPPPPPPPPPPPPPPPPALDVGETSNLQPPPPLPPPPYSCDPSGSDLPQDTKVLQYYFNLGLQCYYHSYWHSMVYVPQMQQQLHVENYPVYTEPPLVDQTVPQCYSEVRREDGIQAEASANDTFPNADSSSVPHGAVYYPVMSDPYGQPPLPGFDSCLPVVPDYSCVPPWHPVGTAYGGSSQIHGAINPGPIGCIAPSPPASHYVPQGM
UniProt Q3KRA9: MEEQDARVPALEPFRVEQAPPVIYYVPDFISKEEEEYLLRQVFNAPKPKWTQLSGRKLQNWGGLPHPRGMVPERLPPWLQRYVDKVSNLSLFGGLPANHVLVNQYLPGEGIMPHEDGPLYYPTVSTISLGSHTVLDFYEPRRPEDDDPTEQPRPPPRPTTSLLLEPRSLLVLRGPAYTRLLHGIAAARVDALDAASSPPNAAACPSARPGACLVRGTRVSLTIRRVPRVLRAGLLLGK
UniProt P27144: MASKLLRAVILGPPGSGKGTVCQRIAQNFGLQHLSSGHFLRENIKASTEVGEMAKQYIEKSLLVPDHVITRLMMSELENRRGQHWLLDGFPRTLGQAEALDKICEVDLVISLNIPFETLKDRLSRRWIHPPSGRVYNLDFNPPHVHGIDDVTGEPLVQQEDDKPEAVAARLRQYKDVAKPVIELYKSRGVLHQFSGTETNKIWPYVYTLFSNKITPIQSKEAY

Experiments:
Assay in all cases: log2 fold change, soluble protein after heating vs DMSO (PISA); higher = thermal stabilisation; K562 cells, 10 uM, 30 min; active = over 0.2 and 3.5 SD of the protein, either way, in both replicates (recomputed)
[1] = compound: C1=CC=C(C=C1)[C@H](COC2=CC3=C(C=C2)NC(=O)N3)NC(=O)C4=CC=CN(C4=O)CC5=CC(=C(C=C5)F)F
Summary of the method: (§1)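 K562 cells (2×10^6 cells/mL) were treated with 10 μM compound for 30 min, and aliquots were heated for 3 min over 48°C-58°C. Pooled aliquots were extracted in PBS with 0.5% NP-40 at 4°C, and the supernatant after 21,000xg for 90 min was measured by TMTpro 16plex LC-MS/MS with channel sums equalised. Reported thermal stability, relative to control samples and from duplicates, is a log2 fold change.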

[2] = compound: CC1=C(SC2=C1C(=N[C@H](C3=NN=C(N32)C)CC(=O)N)C4=CC=C(C=C4)Cl)C
Summary of the method: as §1

[3] = compound: CC1=C2C(=CC=C1)N=C(N(C2=O)C3=CC=CC=C3C)CN4C=NC5=C(N=CN=C54)N
Summary of the method: as §1

[4] = compound: Cc1sc2c(c1C)C(c1ccc(Cl)cc1)=N[C@@H](CC(=O)OC(C)(C)C)c1nnc(C)n1-2
Summary of the method: as §1

[5] = compound: c1ccc([C@@H]2C[C@H]2NC2CCNCC2)cc1
Summary of the method: as §1

Target | log2 fold change [1] | log2 fold change [2] | log2 fold change [3] | log2 fold change [4] | log2 fold change [5]
ALKBH5 (UniProt Q6P6C2) | inactive: 0.065 | inactive: -0.002 | inactive: 0.085 | inactive: -0.024 | inactive: 0.028
ALYREF (UniProt Q86V81) | inactive: 0.088 | inactive: -0.157 | inactive: -0.113 | inactive: 0.204 | inactive: 0.072
ALG12 (UniProt Q9BV10) | inactive: -0.04 | inactive: 0.032 | inactive: -0.093 | inactive: 0 | inactive: 0.001
AGRN (UniProt O00468) | inactive: 0.06 | inactive: 0.154 | inactive: 0.043 | inactive: -0.038 | inactive: 0.028
AGTRAP (UniProt Q6RW13) | inactive: 0.001 | inactive: 0 | inactive: 0.022 | inactive: -0.057 | inactive: 0.073
ALDOC (UniProt P09972) | inactive: 0.041 | inactive: 0.033 | inactive: -0.008 | inactive: -0.035 | inactive: 0.005
ALDH6A1 (UniProt Q02252) | inactive: 0.082 | inactive: 0.124 | inactive: 0.128 | inactive: -0.07 | inactive: 0.019
ALDH16A1 (UniProt Q8IZ83) | inactive: 0 | inactive: 0.029 | inactive: 0.08 | inactive: -0.02 | inactive: 0.009
ALKBH1 (UniProt Q13686) | inactive: 0 | inactive: -0.024 | inactive: 0.113 | inactive: 0.032 | inactive: -0.024
ALDOC (UniProt J3QKP5) | inactive: 0.15 | inactive: 0.012 | inactive: 0.309 | inactive: 0.114 | inactive: -0.014
ALKBH3 (UniProt Q96Q83) | inactive: -0.024 | inactive: 0.046 | inactive: 0.058 | inactive: 0.02 | inactive: -0.003
ALDH9A1 isoform 3 (UniProt P49189) | inactive: -0.007 | inactive: 0.029 | inactive: 0.019 | inactive: -0.019 | inactive: 0.028
ADSS2 (UniProt P30520) | inactive: -0.003 | inactive: 0.039 | inactive: 0.041 | inactive: -0.016 | inactive: 0.012
AFDN isoform 5 (UniProt P55196) | inactive: -0.04 | inactive: 0.055 | inactive: 0.069 | inactive: -0.018 | inactive: -0.023
AHCYL1 (UniProt O43865) | inactive: 0.057 | inactive: -0.004 | inactive: 0.014 | inactive: -0.03 | inactive: -0.037
ADH5 (UniProt P11766) | inactive: 0.026 | inactive: 0.024 | inactive: 0.025 | inactive: -0.023 | inactive: 0.017
AK1 (UniProt P00568) | inactive: -0.007 | inactive: 0.099 | inactive: 0.093 | inactive: -0.012 | inactive: -0.05
ALDOA isoform 2 (UniProt P04075) | inactive: 0.003 | inactive: -0.007 | inactive: -0.033 | inactive: -0.004 | inactive: 0.003
AMPD3 isoform 4 (UniProt Q01432) | inactive: -0.034 | inactive: 0.031 | inactive: 0.064 | inactive: 0.023 | inactive: -0.051
AGPAT5 (UniProt Q9NUQ2) | inactive: -0.015 | inactive: 0.064 | inactive: 0.007 | inactive: -0.008 | inactive: -0.025

Shown comma-delimited: entries from further up.
Target,log2 fold change [1],log2 fold change [2],log2 fold change [3],log2 fold change [4],log2 fold change [5]
ALYREF (UniProt Q86V81),inactive: 0.088,inactive: -0.157,inactive: -0.113,inactive: 0.204,inactive: 0.072
ALDH6A1 (UniProt Q02252),inactive: 0.082,inactive: 0.124,inactive: 0.128,inactive: -0.07,inactive: 0.019
ALDOC (UniProt J3QKP5),inactive: 0.15,inactive: 0.012,inactive: 0.309,inactive: 0.114,inactive: -0.014
AFDN isoform 5 (UniProt P55196),inactive: -0.04,inactive: 0.055,inactive: 0.069,inactive: -0.018,inactive: -0.023
AK1 (UniProt P00568),inactive: -0.007,inactive: 0.099,inactive: 0.093,inactive: -0.012,inactive: -0.05

Next entries follow.

Target | log2 fold change [1] | log2 fold change [2] | log2 fold change [3] | log2 fold change [4] | log2 fold change [5]
ALDH18A1 (UniProt P54886) | inactive: -0.107 | inactive: -0.038 | inactive: 0.028 | inactive: 0.018 | inactive: 0.02
ALG14 (UniProt Q96F25) | inactive: -0.008 | inactive: 0.019 | inactive: 0.241 | inactive: 0.051 | inactive: 0.006
ANAPC10 (UniProt Q9UM13) | inactive: 0.031 | inactive: 0.014 | inactive: -0.016 | inactive: -0.026 | inactive: 0.016
ADIPOR2 (UniProt Q86V24) | inactive: 0.087 | inactive: 0.005 | inactive: 0.069 | inactive: 0.021 | inactive: 0.136
AKR1A1 (UniProt P14550) | inactive: -0.023 | inactive: 0.05 | inactive: 0.039 | inactive: -0.007 | inactive: -0.04
ALG2 (UniProt Q9H553) | inactive: 0.038 | inactive: 0.055 | inactive: 0.06 | inactive: 0.004 | inactive: -0.033
AGO1 (UniProt Q9UL18) | inactive: -0.05 | inactive: -0.066 | inactive: -0.114 | inactive: -0.016 | inactive: 0.05
ADD1 isoform 3 (UniProt P35611) | inactive: 0.01 | inactive: -0.003 | inactive: 0 | inactive: -0.014 | inactive: 0.024
ALG13 (UniProt Q9NP73) | inactive: -0.042 | inactive: 0.132 | inactive: 0.133 | inactive: -0.092 | inactive: 0.037
ADRM1 (UniProt Q16186) | inactive: 0.007 | inactive: -0.062 | inactive: -0.001 | inactive: -0.019 | inactive: -0.01
AKAP8 (UniProt O43823) | inactive: 0.012 | inactive: -0.03 | inactive: 0.105 | inactive: -0.018 | active: 0.347
ALKBH6 isoform 2 (UniProt Q3KRA9) | inactive: -0.004 | inactive: 0.072 | inactive: 0.031 | inactive: -0.026 | inactive: 0.133
ALG1 (UniProt Q9BT22) | inactive: -0.021 | inactive: 0.092 | inactive: 0.06 | inactive: -0.083 | inactive: -0.044
ALDH2 (UniProt P05091) | inactive: 0.009 | inactive: 0.065 | inactive: 0.032 | inactive: -0.043 | inactive: -0.001
AKT1S1 isoform 3 (UniProt Q96B36) | inactive: 0.028 | inactive: 0.033 | inactive: 0.072 | inactive: -0.068 | inactive: 0.016
AK4 (UniProt P27144) | inactive: -0.015 | inactive: 0.068 | inactive: 0.063 | inactive: -0.065 | inactive: 0.015
AFP (UniProt P02771) | inactive: -0.001 | inactive: -0.017 | inactive: 0.053 | inactive: 0.119 | inactive: 0.143
ALG3 (UniProt Q92685) | inactive: -0.061 | inactive: 0.019 | inactive: 0.072 | inactive: 0.054 | inactive: -0.026
AGO2 (UniProt Q9UKV8) | inactive: 0.052 | inactive: -0.032 | inactive: -0.016 | inactive: 0.04 | inactive: 0.057
ADCY3 (UniProt O60266) |  | inactive: 0.083 | inactive: 0.187 | inactive: -0.094 | inactive: 0.088

Target | log2 fold change [1] | log2 fold change [2] | log2 fold change [3] | log2 fold change [4] | log2 fold change [5]
AKAP11 (UniProt Q9UKA4) |  | inactive: -0.124 |  |  | inactive: -0.117
AGAP3 isoform 4 (UniProt Q96P47) | inactive: -0.08 | inactive: -0.023 |  | inactive: -0.006 | inactive: 0.05
ALDOA (UniProt P04075) | inactive: 0.08 |  | inactive: 0.028 | inactive: -0.179 | 
AIF1 (UniProt P55008) | inactive: -0.114 |  | inactive: 0.04 |  | 
ADD3 isoform 2 (UniProt Q9UEY8) |  | inactive: -0.075 | inactive: -0.038 | inactive: 0.007 | inactive: 0
AMD1 (UniProt P17707) | inactive: -0.021 |  | inactive: 0.168 | inactive: -0.164 | 
ALOX5 (UniProt P09917) |  |  |  | inactive: 0.03 | 
ALKBH8 isoform 4 (UniProt Q96BT7) | inactive: -0.052 | inactive: 0.161 |  |  | inactive: -0.34
AIF1L isoform 2 (UniProt Q9BQI0) | inactive: -0.093 | inactive: -0.099 | inactive: -0.23 |  | inactive: -0.05
AFMID isoform 2 (UniProt Q63HM1) |  |  | inactive: -0.071 |  | 
ADPRH (UniProt P54922) | inactive: -0.035 |  | inactive: 0.344 | inactive: -0.121 | 
AMBP (UniProt P02760) | inactive: -0.09 | inactive: -0.053 | inactive: 0.076 |  | inactive: 0.079
ALG13 isoform 2 (UniProt Q9NP73) | inactive: -0.056 |  | inactive: 0 |  | 
AMDHD2 (UniProt Q9Y303) |  | inactive: 0.053 | inactive: -0.023 | inactive: 0.151 | inactive: 0.019
ADCY7 (UniProt P51828) |  | inactive: 0.055 |  |  | inactive: -0.019
ALKBH7 (UniProt Q9BT30) |  | inactive: 0.124 |  |  | inactive: 0.092
AKNA (UniProt Q7Z591) |  | inactive: 0.071 |  |  | inactive: 0.206
ALDH3A2 isoform 2 (UniProt P51648) | inactive: 0.01 |  | inactive: 0.294 |  | 
ADIPOR1 (UniProt Q96A54) | inactive: 0.098 |  | inactive: 0.04 |  | 
AGTPBP1 isoform 3 (UniProt Q9UPW5) |  |  | inactive: 0.225 |  | 
